Values from PubChem BioAssay AID1259314 (Drosophila RNAi Screening Center, 2017)
Shown is a random part of about 3,100 deposited reagents. 289 of all reagents (9.3%) were called active. 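Active includes both higher and lower ATP than plate average; check the z-score sign for direction.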 Reagents against one gene are numbered here. A plus sign joins genes that one reagent is predicted to hit. The record does not give: the amount of reagent.

- Test: 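Transmembrane protein genes affecting ATP after manganese overload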 (primary screen)
- System: Drosophila S2R+ cells
- Reagents: long dsRNA against Drosophila genes
- Timing: 5 days (4 days knock-down, then 1 day metal exposure)
- Conditions: manganese chloride added to 15 mM for 24 hours
- Measured: 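Luciferase ATP signal used as a proxy for viable cell number, reported as one averaged z-score per dsRNA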
- Reading the numbers: mean ATP z-score: higher = more ATP than the plate average, more viable cells under manganese
- Hit rule: 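a mean ATP z-score past 1.5 in either direction is called active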
- Calls: active = strong ATP change, up or down; inactive = no strong ATP change

gene knocked down	reagent no.	mean ATP z-score	call
PIG-A (GeneID 37020)	1	-0.117	inactive
CG9706 (GeneID 39876)	1	-0.335	inactive
CG9706 (GeneID 39876)	2	-0.382	inactive
CG18635 (GeneID 37031)	1	-0.108	inactive
CG18635 (GeneID 37031)	2	-0.0926	inactive
Syx17 (GeneID 38541)	1	1.51	active
CG13078 (GeneID 35251)	1	0.242	inactive
Gr36c (GeneID 117486)	1	0.733	inactive
Gr36c (GeneID 117486)	2	0.741	inactive
CG17075 (GeneID 33191)	1	3.82	active
CG17075 (GeneID 33191)	2	0.265	inactive
CG7149 (GeneID 34063)	1	-1.16	inactive
CG7149 (GeneID 34063)	2	-0.934	inactive
boss (GeneID 43146)	1	-0.426	inactive
boss (GeneID 43146)	2	0.92	inactive
Ir75c (GeneID 39983)	1	-0.382	inactive
CG42340 (GeneID 7354472)	1	0.199	inactive
CG42340 (GeneID 7354472)	2	0.552	inactive
Gr97a (GeneID 117338)	1	-0.109	inactive
CG15279 (GeneID 34863)	1	0.188	inactive
CG15279 (GeneID 34863)	2	-0.697	inactive
CG4928 (GeneID 32682)	1	1.78	active
CG4928 (GeneID 32682)	2	1.64	active
CrzR (GeneID 39409)	1	-1.01	inactive
CrzR (GeneID 39409)	2	-0.304	inactive
CG5326 (GeneID 42655)	1	-0.0274	inactive
CG5326 (GeneID 42655)	2	-0.414	inactive
CG31787 (GeneID 318941)	1	-0.202	inactive
smo (GeneID 33196)	1	5.12	active
smo (GeneID 33196)	2	1.31	inactive
ptc (GeneID 35851)	1	-0.455	inactive
ptc (GeneID 35851)	2	-0.743	inactive
VAChT + ChAT	1	0.287	inactive
Kua (GeneID 35300)	1	0.0229	inactive
Vha16-5 (GeneID 34482)	1	1.64	active
CG14778 (GeneID 31100)	1	0.65	inactive
CG14778 (GeneID 31100)	2	1.92	active
Tsp42A (GeneID 35515)	1	-0.837	inactive
Tsp42A (GeneID 35515)	2	-1.07	inactive
CG32246 (GeneID 317936)	1	-0.453	inactive
CG32246 (GeneID 317936)	2	0.175	inactive
CG10481 (GeneID 35273)	1	-0.768	inactive
CG10481 (GeneID 35273)	2	0.41	inactive
CG3168 (GeneID 31612)	1	-2.35	active
CG3168 (GeneID 31612)	2	-0.389	inactive

Quoted from the listing, 5 entries:
gene knocked down	reagent no.	mean ATP z-score	call
Gr97a (GeneID 117338)	1	-0.109	inactive
CG15279 (GeneID 34863)	1	0.188	inactive
CG15279 (GeneID 34863)	2	-0.697	inactive
CG4928 (GeneID 32682)	1	1.78	active
CG4928 (GeneID 32682)	2	1.64	active
